This is one part of the list. Small differences around the control level are noise.
compound: Cc1nc(Nc2ncc(C(=O)Nc3c(C)cccc3Cl)s2)cc(N2CCN(CCO)CC2)n1 [dasatinib]; assay: log2 fold change of tryptic peptide abundance, ligand vs vehicle (limited proteolysis) (log2 ratio); higher = more trypsin-susceptible (destabilized); settings: ligand concentration: 5 uM; sample: K562 cleared lysate

Chains of the proteins cited; added tags and fusions are not shown. Lines headed by an entry give the natural chain unless they say otherwise; changes in a name come on top.
UniProt Q6AW86: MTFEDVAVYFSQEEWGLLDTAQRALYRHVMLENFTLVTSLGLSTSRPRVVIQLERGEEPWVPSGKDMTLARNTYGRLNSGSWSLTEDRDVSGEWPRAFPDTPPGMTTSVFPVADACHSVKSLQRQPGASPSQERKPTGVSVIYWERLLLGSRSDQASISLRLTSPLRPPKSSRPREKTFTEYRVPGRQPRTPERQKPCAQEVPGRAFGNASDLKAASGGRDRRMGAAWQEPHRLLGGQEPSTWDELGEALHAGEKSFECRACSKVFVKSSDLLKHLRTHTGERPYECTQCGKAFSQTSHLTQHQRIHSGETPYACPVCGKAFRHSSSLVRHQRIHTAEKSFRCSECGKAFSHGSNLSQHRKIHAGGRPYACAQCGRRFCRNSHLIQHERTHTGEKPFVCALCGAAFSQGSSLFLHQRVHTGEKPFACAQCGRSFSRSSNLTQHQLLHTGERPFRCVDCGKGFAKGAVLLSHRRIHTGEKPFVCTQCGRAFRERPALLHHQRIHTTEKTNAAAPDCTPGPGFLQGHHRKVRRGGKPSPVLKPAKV
UniProt Q6P444: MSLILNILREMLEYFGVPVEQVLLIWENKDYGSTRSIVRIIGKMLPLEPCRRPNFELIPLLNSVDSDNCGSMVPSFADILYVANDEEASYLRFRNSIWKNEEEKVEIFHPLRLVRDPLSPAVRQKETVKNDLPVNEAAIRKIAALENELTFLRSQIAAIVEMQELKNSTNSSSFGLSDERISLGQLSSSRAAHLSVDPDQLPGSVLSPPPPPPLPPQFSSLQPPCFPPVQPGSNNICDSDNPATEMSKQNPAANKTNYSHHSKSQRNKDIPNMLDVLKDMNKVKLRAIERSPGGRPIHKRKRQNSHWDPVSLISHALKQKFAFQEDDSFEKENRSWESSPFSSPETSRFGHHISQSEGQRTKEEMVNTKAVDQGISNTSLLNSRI
UniProt Q6P3W2: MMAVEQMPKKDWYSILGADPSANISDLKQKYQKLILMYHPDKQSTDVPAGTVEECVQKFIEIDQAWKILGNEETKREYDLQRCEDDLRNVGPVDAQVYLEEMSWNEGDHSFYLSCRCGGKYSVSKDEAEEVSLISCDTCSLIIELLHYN
UniProt Q6P1L5: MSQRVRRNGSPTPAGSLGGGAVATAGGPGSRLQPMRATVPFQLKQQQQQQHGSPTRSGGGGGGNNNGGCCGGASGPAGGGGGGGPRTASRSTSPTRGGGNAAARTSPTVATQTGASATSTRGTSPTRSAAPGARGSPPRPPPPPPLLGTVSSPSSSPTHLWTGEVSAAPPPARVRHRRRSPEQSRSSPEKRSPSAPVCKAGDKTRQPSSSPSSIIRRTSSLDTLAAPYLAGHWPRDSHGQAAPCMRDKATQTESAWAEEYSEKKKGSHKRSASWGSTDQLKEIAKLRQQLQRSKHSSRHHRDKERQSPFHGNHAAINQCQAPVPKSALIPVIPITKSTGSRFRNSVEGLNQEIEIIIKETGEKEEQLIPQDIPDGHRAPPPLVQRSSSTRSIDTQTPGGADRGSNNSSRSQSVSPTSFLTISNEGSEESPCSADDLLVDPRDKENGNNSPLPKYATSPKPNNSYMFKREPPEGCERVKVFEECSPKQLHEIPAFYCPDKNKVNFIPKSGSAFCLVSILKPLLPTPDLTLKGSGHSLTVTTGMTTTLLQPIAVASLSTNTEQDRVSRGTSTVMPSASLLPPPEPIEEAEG
UniProt Q6P2I3: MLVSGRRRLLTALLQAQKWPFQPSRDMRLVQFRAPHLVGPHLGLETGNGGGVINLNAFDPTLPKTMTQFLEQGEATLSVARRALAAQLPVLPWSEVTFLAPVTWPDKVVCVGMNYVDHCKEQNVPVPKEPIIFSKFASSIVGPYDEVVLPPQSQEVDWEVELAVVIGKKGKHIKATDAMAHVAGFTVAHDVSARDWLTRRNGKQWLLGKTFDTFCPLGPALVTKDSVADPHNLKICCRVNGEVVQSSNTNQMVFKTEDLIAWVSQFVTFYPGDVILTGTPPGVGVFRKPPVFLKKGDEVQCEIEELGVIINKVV
UniProt Q6P1X5, whole entry: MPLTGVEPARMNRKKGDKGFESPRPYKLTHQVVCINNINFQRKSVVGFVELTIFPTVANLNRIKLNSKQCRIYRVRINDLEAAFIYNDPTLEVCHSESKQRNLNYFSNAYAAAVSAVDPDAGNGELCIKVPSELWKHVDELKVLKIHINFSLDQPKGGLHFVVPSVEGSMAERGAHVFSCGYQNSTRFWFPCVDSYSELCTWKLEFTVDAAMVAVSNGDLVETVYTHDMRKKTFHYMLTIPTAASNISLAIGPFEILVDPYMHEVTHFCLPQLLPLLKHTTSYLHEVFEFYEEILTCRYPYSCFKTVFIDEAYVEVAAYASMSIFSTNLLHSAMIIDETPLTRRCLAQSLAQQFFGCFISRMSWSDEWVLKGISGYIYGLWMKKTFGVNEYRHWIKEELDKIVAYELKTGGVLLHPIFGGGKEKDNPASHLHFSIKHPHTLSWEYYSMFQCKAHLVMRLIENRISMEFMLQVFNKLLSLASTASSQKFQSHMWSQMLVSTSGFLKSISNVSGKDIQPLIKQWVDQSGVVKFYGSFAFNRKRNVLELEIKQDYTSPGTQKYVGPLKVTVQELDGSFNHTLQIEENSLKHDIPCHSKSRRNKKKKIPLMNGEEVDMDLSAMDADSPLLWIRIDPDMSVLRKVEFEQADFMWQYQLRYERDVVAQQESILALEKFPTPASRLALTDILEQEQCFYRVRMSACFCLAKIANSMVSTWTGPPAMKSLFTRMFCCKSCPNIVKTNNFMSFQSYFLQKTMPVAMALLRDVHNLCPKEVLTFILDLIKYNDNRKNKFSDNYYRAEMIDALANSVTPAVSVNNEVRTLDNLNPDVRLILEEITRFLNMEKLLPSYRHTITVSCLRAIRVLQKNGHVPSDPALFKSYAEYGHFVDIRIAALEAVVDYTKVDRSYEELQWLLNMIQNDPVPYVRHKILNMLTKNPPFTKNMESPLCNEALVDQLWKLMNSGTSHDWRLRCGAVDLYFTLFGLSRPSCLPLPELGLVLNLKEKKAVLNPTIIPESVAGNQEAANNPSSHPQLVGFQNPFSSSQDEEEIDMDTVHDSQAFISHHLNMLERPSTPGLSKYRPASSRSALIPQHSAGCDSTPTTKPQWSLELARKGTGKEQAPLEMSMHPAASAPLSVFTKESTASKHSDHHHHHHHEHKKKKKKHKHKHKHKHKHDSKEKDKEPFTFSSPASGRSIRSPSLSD
UniProt Q68DC2: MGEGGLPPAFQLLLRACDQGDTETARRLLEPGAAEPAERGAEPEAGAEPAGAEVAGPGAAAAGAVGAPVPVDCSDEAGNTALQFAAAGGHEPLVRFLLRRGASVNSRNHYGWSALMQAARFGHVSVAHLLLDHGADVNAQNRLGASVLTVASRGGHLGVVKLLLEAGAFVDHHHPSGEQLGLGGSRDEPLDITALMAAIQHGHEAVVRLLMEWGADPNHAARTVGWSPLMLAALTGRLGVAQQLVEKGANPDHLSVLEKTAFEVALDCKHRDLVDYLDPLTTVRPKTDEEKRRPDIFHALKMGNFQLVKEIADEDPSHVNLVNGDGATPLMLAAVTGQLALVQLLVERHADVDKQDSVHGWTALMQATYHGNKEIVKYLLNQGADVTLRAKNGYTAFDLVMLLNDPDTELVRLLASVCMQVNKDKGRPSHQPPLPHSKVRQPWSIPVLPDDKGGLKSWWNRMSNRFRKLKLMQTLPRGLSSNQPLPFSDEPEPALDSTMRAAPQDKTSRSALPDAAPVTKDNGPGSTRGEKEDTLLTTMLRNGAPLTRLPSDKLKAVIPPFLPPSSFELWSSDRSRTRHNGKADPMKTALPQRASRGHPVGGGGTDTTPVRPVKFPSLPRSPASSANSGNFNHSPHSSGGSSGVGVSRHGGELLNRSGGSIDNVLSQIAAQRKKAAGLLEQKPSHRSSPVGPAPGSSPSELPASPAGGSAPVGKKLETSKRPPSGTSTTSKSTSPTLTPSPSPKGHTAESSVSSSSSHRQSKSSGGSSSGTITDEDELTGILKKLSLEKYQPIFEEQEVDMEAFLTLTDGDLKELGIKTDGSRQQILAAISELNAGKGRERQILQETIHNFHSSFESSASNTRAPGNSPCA
UniProt Q6NUJ5: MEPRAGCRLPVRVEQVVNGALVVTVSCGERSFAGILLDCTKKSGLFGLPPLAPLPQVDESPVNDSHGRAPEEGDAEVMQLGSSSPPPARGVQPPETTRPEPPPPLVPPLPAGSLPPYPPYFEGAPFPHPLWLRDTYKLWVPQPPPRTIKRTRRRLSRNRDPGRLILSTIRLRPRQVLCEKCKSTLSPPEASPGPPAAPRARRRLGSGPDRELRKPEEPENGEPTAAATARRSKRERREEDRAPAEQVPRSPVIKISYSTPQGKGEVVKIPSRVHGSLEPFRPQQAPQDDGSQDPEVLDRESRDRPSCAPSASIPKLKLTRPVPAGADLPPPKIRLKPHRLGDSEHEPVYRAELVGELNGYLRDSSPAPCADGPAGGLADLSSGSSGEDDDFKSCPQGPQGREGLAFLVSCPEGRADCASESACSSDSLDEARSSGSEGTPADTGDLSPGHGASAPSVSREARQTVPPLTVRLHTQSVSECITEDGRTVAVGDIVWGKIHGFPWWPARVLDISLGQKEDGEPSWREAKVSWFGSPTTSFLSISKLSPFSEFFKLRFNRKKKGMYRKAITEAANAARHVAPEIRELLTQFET
UniProt Q6IAA8, whole entry: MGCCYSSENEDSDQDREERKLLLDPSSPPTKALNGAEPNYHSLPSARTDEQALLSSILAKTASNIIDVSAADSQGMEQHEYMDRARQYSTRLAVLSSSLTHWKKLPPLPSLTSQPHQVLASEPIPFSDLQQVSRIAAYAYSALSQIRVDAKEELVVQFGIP
UniProt Q69YL0: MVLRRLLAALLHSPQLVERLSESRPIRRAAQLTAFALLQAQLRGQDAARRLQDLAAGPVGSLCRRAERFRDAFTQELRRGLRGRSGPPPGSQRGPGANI
UniProt Q6P1M9: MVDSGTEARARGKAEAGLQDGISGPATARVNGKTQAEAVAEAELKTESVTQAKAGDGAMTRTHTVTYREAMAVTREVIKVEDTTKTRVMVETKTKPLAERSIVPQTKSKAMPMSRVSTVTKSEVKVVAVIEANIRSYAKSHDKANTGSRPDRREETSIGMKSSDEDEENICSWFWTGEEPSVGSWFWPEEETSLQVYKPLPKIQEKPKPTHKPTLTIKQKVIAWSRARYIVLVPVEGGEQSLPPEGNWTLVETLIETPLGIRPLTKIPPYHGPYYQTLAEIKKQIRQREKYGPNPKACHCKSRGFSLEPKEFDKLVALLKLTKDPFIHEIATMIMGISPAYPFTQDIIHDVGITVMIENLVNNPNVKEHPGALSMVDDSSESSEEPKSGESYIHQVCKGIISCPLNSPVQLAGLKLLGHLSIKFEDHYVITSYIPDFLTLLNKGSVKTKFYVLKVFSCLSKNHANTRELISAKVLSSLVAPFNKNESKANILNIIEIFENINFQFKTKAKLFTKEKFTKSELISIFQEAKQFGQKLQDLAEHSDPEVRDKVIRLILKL
UniProt Q68EM7: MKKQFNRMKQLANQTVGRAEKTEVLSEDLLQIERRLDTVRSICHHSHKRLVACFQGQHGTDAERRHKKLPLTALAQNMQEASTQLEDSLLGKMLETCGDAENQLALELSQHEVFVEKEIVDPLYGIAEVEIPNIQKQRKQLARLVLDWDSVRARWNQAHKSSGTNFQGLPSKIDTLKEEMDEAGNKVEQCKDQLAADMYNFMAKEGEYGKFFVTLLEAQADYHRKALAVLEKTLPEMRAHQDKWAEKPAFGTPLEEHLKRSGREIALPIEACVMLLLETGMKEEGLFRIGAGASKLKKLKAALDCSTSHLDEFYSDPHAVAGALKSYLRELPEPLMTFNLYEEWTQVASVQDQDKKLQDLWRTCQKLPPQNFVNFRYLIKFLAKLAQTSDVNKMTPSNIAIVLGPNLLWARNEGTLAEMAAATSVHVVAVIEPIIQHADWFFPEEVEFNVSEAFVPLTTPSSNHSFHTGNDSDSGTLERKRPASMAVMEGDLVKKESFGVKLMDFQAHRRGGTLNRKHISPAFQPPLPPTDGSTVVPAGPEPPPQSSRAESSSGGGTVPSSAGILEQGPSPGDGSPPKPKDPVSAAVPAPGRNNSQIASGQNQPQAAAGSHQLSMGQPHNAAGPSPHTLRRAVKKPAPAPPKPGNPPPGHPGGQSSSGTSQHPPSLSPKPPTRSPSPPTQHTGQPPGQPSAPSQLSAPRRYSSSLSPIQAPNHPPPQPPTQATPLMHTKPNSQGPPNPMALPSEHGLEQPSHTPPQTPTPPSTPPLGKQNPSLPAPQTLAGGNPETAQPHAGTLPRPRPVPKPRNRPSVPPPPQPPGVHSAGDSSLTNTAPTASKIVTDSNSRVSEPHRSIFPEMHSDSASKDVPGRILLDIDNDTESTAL
UniProt Q6NVV1, whole entry: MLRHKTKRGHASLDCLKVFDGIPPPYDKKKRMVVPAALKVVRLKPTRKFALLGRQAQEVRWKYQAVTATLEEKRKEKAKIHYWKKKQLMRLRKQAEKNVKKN

Target	log2 fold change
UniProt Q6AW86 (peptide sequence: QKPCAQEVPGR, peptide start residue: 195)	0.217
TBC1D9B (peptide sequence: YLDNVVNK, peptide start residue: 730) (UniProt Q66K14)	-0.184
LARP1 (peptide sequence: HKWVPLQIDMKPEVPR, peptide start residue: 250) (UniProt Q6PKG0)	-0.244
MYSM1 (peptide sequence: CGLDKETPNQK, peptide start residue: 169) (UniProt Q5VVJ2)	0.617
UniProt Q6P444 (peptide sequence: QNSHWDPVSLISHALK, peptide start residue: 303)	-0.607
DNAJC24 (peptide sequence: LILMYHPDK, peptide start residue: 34) (UniProt Q6P3W2)	0.38
UniProt Q6EKJ0 (peptide sequence: EQVNDLFSR, peptide start residue: 870)	0.0247
FAM117B (peptide sequence: SASWGSTDQLK, peptide start residue: 271) (UniProt Q6P1L5)	-0.238
HMBOX1 (peptide sequence: DSSVIKEEIK, peptide start residue: 169) (UniProt Q6NT76)	0.26
UniProt Q5VTT5 (peptide sequence: HGDEPKELK, peptide start residue: 1427)	0.0804
OTUD7B (peptide sequence: LHLLHSYMNVK, peptide start residue: 422) (UniProt Q6GQQ9)	-0.249
FAHD2B (peptide sequence: EQNVPVPKEPIIFSK, peptide start residue: 121) (UniProt Q6P2I3)	-0.152
TAF2 (peptide sequence: IAALEAVVDYTKVDR, peptide start residue: 888) (UniProt Q6P1X5)	-0.313
MRPL14 (peptide sequence: ALIVGHCMPGPR, peptide start residue: 84) (UniProt Q6P1L8)	-0.0578
ANKS6 (peptide sequence: ACDQGDTETARR, peptide start residue: 16) (UniProt Q68DC2)	0.673
BLOC1S3 (peptide sequence: GVPGTEPEKDPGPRA, peptide start residue: 188) (UniProt Q6QNY0)	-0.0822
TTC37 (peptide sequence: LLDLYESVDKQK, peptide start residue: 103) (UniProt Q6PGP7)	0.256
UniProt Q6N069 (peptide sequence: LYDNPLTNESK, peptide start residue: 568)	0.386
ZFAND6 (peptide sequence: ENPVVVGEK, peptide start residue: 196) (UniProt Q6FIF0)	0.0685
PWWP2B (peptide sequence: LGDSEHEPVYR, peptide start residue: 340) (UniProt Q6NUJ5)	-0.309
FIGNL1 (peptide sequence: RLYIPLPEASAR, peptide start residue: 562) (UniProt Q6PIW4)	0.471
UniProt Q6IAA8 (peptide sequence: LAVLSSSLTHWK, peptide start residue: 92)	-0.227
NCBP2AS2 (peptide sequence: SGPPPGSQR, peptide start residue: 85) (UniProt Q69YL0)	0.188
ARMCX5 (peptide sequence: SELISIFQEAK, peptide start residue: 520) (UniProt Q6P1M9)	0.188
ARHGAP17 (peptide sequence: WAEKPAFGTPLEEHLKR, peptide start residue: 244) (UniProt Q68EM7)	-0.663
UniProt Q6NVV1 (peptide sequence: RMVVPAALKVVR, peptide start residue: 117)	-0.798
DENND1B (peptide sequence: GGALFNTAMTK, peptide start residue: 429) (UniProt Q6P3S1)	-0.531
CDKAL1 (peptide sequence: MEQVPAQVKK, peptide start residue: 405) (UniProt Q5VV42)	0.323

2 entries from above, as labelled records.
ZFAND6 (peptide sequence: ENPVVVGEK, peptide start residue: 196) (UniProt Q6FIF0)
  log2 fold change: 0.0685
PWWP2B (peptide sequence: LGDSEHEPVYR, peptide start residue: 340) (UniProt Q6NUJ5)
  log2 fold change: -0.309
